Experimental data reported in publication PMC6603209.
No constants are given. Whether binding was seen depends on the method and setting. In cells and extracts the contact can be indirect. A yes stands for co-enrichment or nearness to the bait. Other partners may have been found. For some assays here: A no says only that the protein was not detected with the bait. For some assays here: Tags and fused reporters may be left off the sequences shown.

T1: N-terminal 3xFLAG-tagged PII fusion protein (Synechocystis sp. PCC 6803)
T1 sequence: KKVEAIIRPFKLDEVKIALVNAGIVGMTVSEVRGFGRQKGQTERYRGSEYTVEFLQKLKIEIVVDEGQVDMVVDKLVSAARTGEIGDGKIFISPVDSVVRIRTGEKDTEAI

B1: NrtC (protein, UniProt P73450 1-670)
chain: MMPFIEIDHVDRIFPLPDGGRYIALKNIELKISQGEFISLIGHSGCGKSTLLNMISGLDKPTFGGVIMEGKEITEPGPERMVVFQNYSLLPWLTVRQNIALAVNRVLRDLPKPEQEKIIDDNIALVGLQRAAHKRPGELSGGMKQRVAIARALSTRPKVLLLDEPFGALDALTRGNLQERLMEIVQESGVTCIMVTHDVDEALLLSDRVVMLTTGPEAHIGQILEVPIPRPRHRLEVVNHPSYYALRGEMVYFLNQQKRAKKVGAVSQFAEAMGGNGLEKINLDLGFIPLTDCAPLVVAKEKGFFQKHGLEQVNLVKEPSWQAIADGIRERRLDGAQMVAGMPLALTLGMGGKTPLPMVTAMVMSRNGNAITLSKKFAEAGVKTLEDLRLKLAETPDQVSTLGMVHPASMQNLLLRYWLASGSIDPDQDINLMRLPPPQMVSNLEAGNIDGFCVGEPWNSYAVKQNLGYVIATDLDIWNGHPEKVLGMREEWVNKYPATHLALVKALLEACEYCDDRRHRQEILDYLALPQYVGTSTEYISPGFLTEYDQGNDAEAEMLLDFNQFYVKQSNYPSRSEGLWILTQLARWGYIDFPKNWVEIIERVRRPDLFGEACRHLGWPDLEGDHHNVSLFDGMVFTPNDPLGYIKRFTIHRDIQVTEILIDQIDQVNQ
B2: NrtA (protein, UniProt P73452 29-446)
chain: CTSPTTTSTGTGTGSSTDQAISPLVEGENAPEVTTAKLGFIALTDAAPLIIAKEKGFYAKYGMPDVEVLKQASWGTTRDNLVLGSASGGIDGAHILTPMPYLITMGTVTDGKPTPMYILARLNVNGQGIQLGNNYKDLKVGTDAAPLKEAFAKVTDPKVAMTFPGGTHDMWIRYWLAAGGMEPGKDFSTIVVPPAQMVANVKVNAMESFCVGEPWPLQTVNQGVGYQALTTGQLWKDHPEKAFGMRADWVDQNPKAAKALLMAVMEAQQWCDQAENKEEMCQILSKREWFKVPFEDIIDRSKGIYNFGNGQETFEDQEIMQKYWVDNASYPYKSHDQWFLTENIRWGYLPASTDTKAIVDKVNREDLWREAAQALEVPADQIPSSPSRGIETFFDGITFDPENPQAYLDSLKIKSIKA
B3: Sll0944 (protein, UniProt P77971 1-164)
chain: MQCLGKIFLSPGTKPESKNLIVIIFTADRDQRVLALSRIVKRPFFNKNPMPAMSQILDPIPNNQPSALFCCYVNATNQIQVARITNVPNWYFERVVFPGQRLVFEAVPSAQLEIHTGMMASSIISDTIPCEQLSIDPDGLAAGGFISPEKEHESEDMTSQSLVA
B4: Amt1 ammonium permease (protein, UniProt P54147 1-507)
chain: MSNSILSKLNVGERSPVNRTHSSRTEAEKSSLFRFVRRKINSPWLACVPLTALIVAIWNAAAIAQDTEIVNITVETVNENVATLQGTLNAIWILIAAILVIFMNAGFGMLETGLCRQKNAVNILTKNLIVFALATIAYWAIGFSLMFGSSGNPFVGFGGFFLSGDHTNYGLSPFPEGLPVAVFFLFQVAFSATAATIVSGAVAERIKFNEFLIFSVLLVGIAYPITGHWVWDAGGWLYTMGFMDFAGSTVVHSVGGWAALAGAFLLGPRLGKFVDGRPGAIPGHNMGFAMLGCLILWIGWFGFNPGSQLAADQACAYIAVTTNLAASAGGLTATFTSWLKDGKPDLTMVINGVLAGLVGITAGCAGVSYWGSVIIGGIAGILVVYSVAFFDKIKIDDPVGAISVHLVNGVWGTLAVGFFNMEKGLFYGGGINQLIIQIVGILAIGAFTAIFSFVVWAILKQTMGIRVSGEEEMIGLDIGEHGMEAYTGFVKETDSFGSAVSGATVPE
B5: UreA (protein, UniProt P73796 1-100)
chain: MQLSPQEKDKLLIFTASLVAERRKARGLKLNYPEAVAYISAAILEGARDGRTVAELMNYGATLLSRDEVMEGVPEMLPEVQVEATFPDGTKLVTVHEPIR
B6: UreB (protein, UniProt P74386 1-105)
chain: MATMIPGEIITPEGDIELNVGRSTCTINVANTGDRPIQVGSHYHFYEVNAALQFDRDLAKGMRLDIPAGTAVRFEPGDEKNVNLVAYAGSREIYGFNGLVNGPLE
B7: NrtB (protein, UniProt P73451 1-275)
chain: MASSTAGLRPRRKKNPLSFIYSPKVIRPAVAIAVLLVVWQILCSGEGSNLPSPVQVLEQTYPLILNPFFDNGGTDKGLGIQIFASLTRVAVGFSAAAVVGIALGILIGSSKFMYDALDPIFQVLRTIPPLAWLPIALAALQEAEPSAIFVIFITAIWPIVINTTVGAQQVPQDYRNVSRVLKLSKSQYFFNILFPAAVPYIFTGLRIGIGLSWLAIVAAEMLIGGVGIGFFIWDAYNSSLISEIIIALIYVGIVGLLLDRFIAFLESLVVPAEQK
B8: UreG (protein, UniProt P72955 1-206)
chain: MAQTPLRIGIAGPVGSGKTALLEALCKALRQKYQLAVVTNDIYTQEDAQFLVRAEALTPDRILGVETGGCPHTAIREDASLNLAAIADLEARFMPLDMVFLESGGDNLAATFSPELVDLTLYVIDVAAGDKIPRKGGPGITKSDLLVINKIDLAPMVGADLGIMDRDAKKMRGEKPFVFTNLKTATGLSTVVDFVEHYLPTKVLAS
B9: UreD (protein, UniProt P73047 1-270)
chain: MLSASTVNPSAPWQANLWLRYDRPGHRTRMVECLVQAPLKVQRSFYPDDTGQCQTMLLHTGGGMVGGDRLGYDIVLEAQSDVCFTSASAGKIYRSLGPWSEQTVNLEVRVGASVLWCPQETIIFDQARYQQNFCIKLQEQARFKGWEIVRLGRTARGEKFTQGHWRSSWEIWQGDKLIWGERQQLIGSEQLYESPNALAGFTCLGTYVDLSRSFDQDLVHQAQEIIHSQGRSPQFGLTLTATQGLIARYRGNSTQEVKDIFTQLSQVISP
B10: UreF (protein, UniProt P73327 1-236)
chain: MLSGSAQLKLLQLVSPTLPVGAYNYSEGLEWLIERGNITNADTLGAWITQELCRGSITVDTAIMVRAHRLAGQMPKTDILPSPTLKHLSYWNQWLTATRESRELREQSLQMGGSLRKLLLDLEPTVQSWFEPIPPTEPCNYAIAFGLGAAFWGIDLHQSGLGYLHSWANNLISAGLRLIPLGQTAGQKLLLHLTPTILHQWQQILLLGDDDLYSCSWGLALASMGHESQYTRLFRS

molecular target: C-terminal 3xFLAG-tagged PII fusion protein (Synechocystis sp. PCC 6803); assay: affinity purification with mass spectrometry; anti-FLAG-M2-agarose pull-down of 3xFLAG-tagged PII from DDM-solubilised Synechocystis extracts (IP buffer 25 mM MES/NaOH pH 6.5, 5 mM CaCl2, 10 mM MgCl2, 20% glycerol, 0.04% DDM in washes), elution with 3xFLAG peptide, nanoLC-MS/MS, label free quantification against the non-transformed wild type; cells grown with nitrate or with urea; two replicates

| Molecule | binding |
| --- | --- |
| B1 | binds |
| B2 | no binding |
| B3 | binds |
| B4 | binds |
| B5 | no binding |
| B6 | no binding |
| B7 | binds |

molecular target: T1, N-terminal 3xFLAG-tagged PII fusion protein (Synechocystis sp. PCC 6803); assay: as above

| Molecule | binding |
| --- | --- |
| B1 | binds |
| B8 | binds |
| B2 | binds |
| B3 | binds |
| B4 | binds |
| B5 | binds |
| B6 | binds |
| B9 | binds |
| B7 | binds |
| B10 | binds |

molecular target: T1, N-terminal 3xFLAG-tagged PII fusion protein (Synechocystis sp. PCC 6803); assay: as above; remark: another data set of the same source

| Molecule | binding |
| --- | --- |
| UrtA | binds |
| UreC (from UniProt P73061 1-569) | binds |
| UrtE (from UniProt Q55753) | binds |
| PII phosphatase PphA (from UniProt P73626) (enzyme) | binds |
| UrtC (from UniProt P73351) | binds |
| Ssr0692 (from UniProt P74791) | binds |
| UrtB (from UniProt P73350) | binds |
| NrtD (from UniProt P73449) | binds |
| PipX | binds |
